According to the supplement of paper PMC4604168 (melanoma cell lines):
This is one part of the list. Single values are uncertain, as repeats are few or missing.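 Cells were imaged in 1,536-well plates, and nuclei stained with an antibody against cleaved PARP were counted against all DNA-stained nuclei to give the apoptosis fraction. Screening doses were chosen to leave most cells alive, and resting and induced cleaved-PARP levels differ strongly between cell lines.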

These molecules were tested on A375 (assay: cleaved PARP positive nuclei fraction relative to DMSO control; melanoma cells; higher = more apoptosis). Details: library dose: low library concentration; 72 h.

| SMILES | cleaved PARP positive nuclei fraction [%] |
| --- | --- |
| Cn1c(Nc2ccc(C(F)(F)F)cc2)nc2cc(Oc3ccnc(-c4ncc(C(F)(F)F)[nH]4)c3)ccc21 + O=C(Oc1ccc([N+](=O)[O-])cc1)N1CCC(C(O)(c2ccc3c(c2)OCO3)c2ccc3c(c2)OCO3)CC1 [JZL184] (first compound 0.08 µM, partner dose 1 µM) | 411 |
| C/C(O)=C(\C#N)C(=O)Nc1cc(Br)ccc1Br + COc1cc(N2CCC(N3CCN(C)CC3)CC2)ccc1Nc1ncc(Cl)c(Nc2ccccc2S(=O)(=O)C(C)C)n1 [NVP-TAE684] (first compound 2 µM, partner dose 0.08 µM) | 102 |
| Cc1cc(SCc2sc(-c3ccc(C(F)(F)F)c(F)c3)nc2C)ccc1OCC(=O)O + Cc1cc([N+](=O)[O-])ccc1NS(=O)(=O)c1cc(Cl)ccc1Cl [FH535] (first compound 2 µM, partner dose 1 µM) | 53.2 |
| C[As](C)SC[C@H](NC(=O)CC[C@H](N)C(=O)O)C(=O)NCC(=O)O [Darinaparsin] + O=S(=O)(c1ccccc1)N(CC(F)(F)F)c1ccc(C(O)(C(F)(F)F)C(F)(F)F)cc1 [T0901317] (first compound 0.4 µM, partner dose 1.4 µM) | 247 |
| Cc1cc(SCc2sc(-c3ccc(C(F)(F)F)c(F)c3)nc2C)ccc1OCC(=O)O + Oc1nc(-c2ccc(C(F)(F)F)cc2)nc2c1CSCC2 [XAV939] (first compound 2 µM, partner dose 2 µM) | 69.6 |
| CCc1ccc(CCOc2ccc(CC3SC(=O)NC3=O)cc2)nc1 (configuration not stated) [pioglitazone] + Cc1cc(SCc2sc(-c3ccc(C(F)(F)F)c(F)c3)nc2C)ccc1OCC(=O)O [GW0742] (first compound 2 µM, partner dose 2 µM) | 131 |
| Cc1cc(N2CCOCC2)cc2[nH]c(-c3c(NC[C@@H](O)c4cccc(Cl)c4)cc[nH]c3=O)nc12 + O=C(Oc1ccc([N+](=O)[O-])cc1)N1CCC(C(O)(c2ccc3c(c2)OCO3)c2ccc3c(c2)OCO3)CC1 [JZL184] (first compound 0.2 µM, partner dose 1 µM) | 202 |
| C[As](C)SC[C@H](NC(=O)CC[C@H](N)C(=O)O)C(=O)NCC(=O)O [Darinaparsin] + O=C(Oc1ccc([N+](=O)[O-])cc1)N1CCC(C(O)(c2ccc3c(c2)OCO3)c2ccc3c(c2)OCO3)CC1 [JZL184] (first compound 0.4 µM, partner dose 1 µM) | 51.9 |
| Cc1cc(SCc2sc(-c3ccc(C(F)(F)F)c(F)c3)nc2C)ccc1OCC(=O)O + c1cc(-c2cnn3cc(-c4ccc(OCCN5CCCCC5)cc4)cnc23)ccn1 [Dorsomorphin] (first compound 2 µM, partner dose 0.4 µM) | 168 |
| C#Cc1cccc(Nc2ncnc3cc(OCCOC)c(OCCOC)cc23)c1 [erlotinib] + C/C(O)=C(\C#N)C(=O)Nc1cc(Br)ccc1Br [LFM-A13] (first compound 0.8 µM, partner dose 2 µM) | 266 |
| C/C(O)=C(\C#N)C(=O)Nc1cc(Br)ccc1Br + O=c1cc(-c2cccc3c2Sc2ccccc2S3)oc(N2CCOCC2)c1 [KU55933] (first compound 2 µM, partner dose 1 µM) | 89.3 |
| Cc1cc(SCc2sc(-c3ccc(C(F)(F)F)c(F)c3)nc2C)ccc1OCC(=O)O + Oc1cc(-c2nc(-c3ccccc3)[nH]c2-c2ccncc2)ccc1Cl [L779450] (first compound 2 µM, partner dose 0.2 µM) | 315 |
| O=C(Nc1cccc(Cl)c1)Nc1ncc(CCNc2ncnc3ccsc23)s1 + O=C(Oc1ccc([N+](=O)[O-])cc1)N1CCC(C(O)(c2ccc3c(c2)OCO3)c2ccc3c(c2)OCO3)CC1 [JZL184] (first compound 0.0008 µM, partner dose 1 µM) | 22.2 |
| COc1ccc(-c2ccc3c(N4CCOCC4)nc(N4C[C@@H](C)O[C@@H](C)C4)nc3n2)cc1CO + O=C(Oc1ccc([N+](=O)[O-])cc1)N1CCC(C(O)(c2ccc3c(c2)OCO3)c2ccc3c(c2)OCO3)CC1 [JZL184] (first compound 0.02 µM, partner dose 1 µM) | 169 |
| Cc1nc(Nc2ncc(C(=O)Nc3c(C)cccc3Cl)s2)cc(N2CCN(CCO)CC2)n1 [dasatanib] + C/C(O)=C(\C#N)C(=O)Nc1cc(Br)ccc1Br [LFM-A13] (first compound 0.004 µM, partner dose 2 µM) | 243 |
| COCC[n+]1c2c(n(Cc3cnccn3)c1C)C(=O)c1ccccc1C2=O + Cc1cc(SCc2sc(-c3ccc(C(F)(F)F)c(F)c3)nc2C)ccc1OCC(=O)O [GW0742] (first compound 0.0004 µM, partner dose 2 µM) | 70.2 |

| SMILES | cleaved PARP positive nuclei fraction [%] |
| --- | --- |
| COc1cc(N2CCC(N3CCN(C)CC3)CC2)ccc1Nc1ncc(Cl)c(Nc2ccccc2S(=O)(=O)C(C)C)n1 + O=C(Oc1ccc([N+](=O)[O-])cc1)N1CCC(C(O)(c2ccc3c(c2)OCO3)c2ccc3c(c2)OCO3)CC1 [JZL184] (first compound 0.08 µM, partner dose 1 µM) | 160 |
| NCC(=O)Nc1ccc(-n2nc(C(F)(F)F)cc2-c2ccc3c(ccc4ccccc43)c2)cc1 + Cc1cc(SCc2sc(-c3ccc(C(F)(F)F)c(F)c3)nc2C)ccc1OCC(=O)O [GW0742] (first compound 1 µM, partner dose 2 µM) | 4600 |
| C/C(O)=C(\C#N)C(=O)Nc1cc(Br)ccc1Br + Cn1cc(/C=C2\C(=O)Nc3cccnc32)c2ccccc21 [GW441756] (first compound 2 µM, partner dose 0.4 µM) | 104 |
| C[As](C)SC[C@H](NC(=O)CC[C@H](N)C(=O)O)C(=O)NCC(=O)O [Darinaparsin] + c1cc(-c2cnn3cc(-c4ccc(OCCN5CCCCC5)cc4)cnc23)ccn1 [Dorsomorphin] (first compound 0.4 µM, partner dose 0.4 µM) | 48.4 |
| CCc1ccc(CCOc2ccc(CC3SC(=O)NC3=O)cc2)nc1 (configuration not stated) [pioglitazone] + C/C(O)=C(\C#N)C(=O)Nc1cc(Br)ccc1Br [LFM-A13] (first compound 2 µM, partner dose 2 µM) | 97.8 |
| Nc1cccc2c1CN(C1CCC(=O)NC1=O)C2=O (configuration not stated) [lenalidomide] + Cc1cc(SCc2sc(-c3ccc(C(F)(F)F)c(F)c3)nc2C)ccc1OCC(=O)O [GW0742] (first compound 1 µM, partner dose 2 µM) | 76 |
| Cc1cc(SCc2sc(-c3ccc(C(F)(F)F)c(F)c3)nc2C)ccc1OCC(=O)O + CC(C)CCN1c2nc(Nc3cc(F)c(O)c(F)c3)ncc2N(C)C(=O)C1C [BID1870] (first compound 2 µM, partner dose 0.2 µM) | 58 |
| C[As](C)SC[C@H](NC(=O)CC[C@H](N)C(=O)O)C(=O)NCC(=O)O [Darinaparsin] + COc1cc2ncnc(Nc3ccc(Oc4ccccc4)cc3)c2cc1OC [SrcI1] (first compound 0.4 µM, partner dose 2 µM) | 107 |
| COc1ccc(-c2ccc3c(N4CCOCC4)nc(N4C[C@@H](C)O[C@@H](C)C4)nc3n2)cc1CO + Cc1cc(SCc2sc(-c3ccc(C(F)(F)F)c(F)c3)nc2C)ccc1OCC(=O)O [GW0742] (first compound 0.02 µM, partner dose 2 µM) | 184 |
| O=S(=O)(c1ccccc1)N(CC(F)(F)F)c1ccc(C(O)(C(F)(F)F)C(F)(F)F)cc1 + C/C(O)=C(\C#N)C(=O)Nc1cc(Br)ccc1Br [LFM-A13] (first compound 1.4 µM, partner dose 2 µM) | 207 |
| O=C(O)c1ccc(-c2c[nH]c3ncc(-c4ccccc4)cc23)cc1C1CCCC1 + O=C(Oc1ccc([N+](=O)[O-])cc1)N1CCC(C(O)(c2ccc3c(c2)OCO3)c2ccc3c(c2)OCO3)CC1 [JZL184] (first compound 0.16 µM, partner dose 1 µM) | 91.8 |
| Cn1nnc2c(C(N)=O)ncn2c1=O [temozolomide] + O=C(Oc1ccc([N+](=O)[O-])cc1)N1CCC(C(O)(c2ccc3c(c2)OCO3)c2ccc3c(c2)OCO3)CC1 [JZL184] (first compound 2 µM, partner dose 1 µM) | 55.5 |
| Cc1cc(SCc2sc(-c3ccc(C(F)(F)F)c(F)c3)nc2C)ccc1OCC(=O)O + COc1cc(N2CCC(N3CCN(C)CC3)CC2)ccc1Nc1ncc(Cl)c(Nc2ccccc2S(=O)(=O)C(C)C)n1 [NVP-TAE684] (first compound 2 µM, partner dose 0.08 µM) | 34 |
| CCN(CC)CCCCNc1ncc2cc(-c3cc(OC)cc(OC)c3)c(NC(=O)NC(C)(C)C)nc2n1 + C/C(O)=C(\C#N)C(=O)Nc1cc(Br)ccc1Br [LFM-A13] (first compound 0.1 µM, partner dose 2 µM) | 64.6 |
| CN(NC(=O)CC(=O)NN(C)C(=S)c1ccccc1)C(=S)c1ccccc1 + C/C(O)=C(\C#N)C(=O)Nc1cc(Br)ccc1Br [LFM-A13] (first compound 0.006 µM, partner dose 2 µM) | 3640 |
| CCN(CC)CCCCNc1ncc2cc(-c3cc(OC)cc(OC)c3)c(NC(=O)NC(C)(C)C)nc2n1 + Cc1cc(SCc2sc(-c3ccc(C(F)(F)F)c(F)c3)nc2C)ccc1OCC(=O)O [GW0742] (first compound 0.1 µM, partner dose 2 µM) | 141 |

Single entries from the entries so far.
Value for O=C(O)c1ccc(-c2c[nH]c3ncc(-c4ccccc4)cc23)cc1C1CCCC1 + O=C(Oc1ccc([N+](=O)[O-])cc1)N1CCC(C(O)(c2ccc3c(c2)OCO3)c2ccc3c(c2)OCO3)CC1 [JZL184] (first compound 0.16 µM, partner dose 1 µM) under cleaved PARP positive nuclei fraction [%]: 91.8
Value for COc1cc(N2CCC(N3CCN(C)CC3)CC2)ccc1Nc1ncc(Cl)c(Nc2ccccc2S(=O)(=O)C(C)C)n1 + O=C(Oc1ccc([N+](=O)[O-])cc1)N1CCC(C(O)(c2ccc3c(c2)OCO3)c2ccc3c(c2)OCO3)CC1 [JZL184] (first compound 0.08 µM, partner dose 1 µM) under cleaved PARP positive nuclei fraction [%]: 160
Value for COCC[n+]1c2c(n(Cc3cnccn3)c1C)C(=O)c1ccccc1C2=O + Cc1cc(SCc2sc(-c3ccc(C(F)(F)F)c(F)c3)nc2C)ccc1OCC(=O)O [GW0742] (first compound 0.0004 µM, partner dose 2 µM) under cleaved PARP positive nuclei fraction [%]: 70.2
